Experimental data from patent publication US7514207B2, “Methods of screening for compounds that decrease phosphorylation of merlin and may be useful in cancer treatment” (Massachusetts Institute of Technology, priority 2001, dated 2009).

System: merlin kinase
Assay: In-vitro merlin kinase assay with kinase inhibitors
Type: biochemical
Conditions: inhibition of the activity of the merlin kinase

CN[C@@H]1C[C@H]2O[C@@](C)([C@@H]1OC)n1c3ccccc3c3c4c(c5c6ccccc6n2c5c31)C(=O)NC4 [Staurosporine]
concentration range inhibiting the merlin kinase: lower nM range
